Data taken from PubChem BioAssay AID504775 (Broad Institute, 2011).
Screen size: about 320,000 compounds; about 310 (0.097%) were called active. The inconclusive results got no clear call from the source; some entries with a clear call stand among them for comparison.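 Rule for the calls: active = mean replicate activation of at least 60% and every replicate at or above 60%; inconclusive = mean or all-replicate condition met, but not both; inactive = mean below 60% and not all replicates reaching 60%.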

Assay: activators of SR-BI mediated DiI-HDL uptake, primary screen, ldlA[mSR-BI] CHO cells, DiI fluorescence (AID 504775);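 note: 0% = median plate neutral-control signal and 100% = twice that signal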
Conditions: 3 h, at 12.5 µM, stronger effect = higher value
Procedure, shortened: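 Test system: SR-BI-overexpressing, LDLR-lacking CHO cells. Measured by: DiI fluorescence, bottom read. Medium: Ham's F12 with 0.5% BSA, HEPES 25 mM, pH 7.4. Timing: 3 h uptake period with compound, 37 °C.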

| Compound | activation |
| --- | --- |
| CCn1c(=O)cc(OCC(=O)N2CCN(Cc3ccc4c(c3)OCO4)CC2)c2ccccc21 | inactive: -34.2% |
| Clc1ccc(NC2=NCCCS2)cc1Cl | inconclusive: 218% |
| CC1=C(C(=O)O)N2C(=O)C(NC(=O)Cc3ccccc3)C2SC1 (stereo unspecified) | inconclusive: 146% |
| Cc1ccccc1Cc1c(C)nc2nc(SCC(=O)N3CCC4(CC3)OCCO4)nn2c1C | inconclusive: 208% |
| CCC(C#N)(CC)P(=S)(c1ccccc1)c1ccccc1 | active: 63.2% |
| N#Cc1cn(C2OC(CO)C(O)C2O)c2ncnc(N)c12 (stereo unspecified) | inconclusive: 185% |
| CC(=O)c1cccc(OCC(O)CN2CC=C(c3ccccc3)CC2)c1 (stereo unspecified) | inactive: -17.9% |
| Cc1ccc(Cn2nnnc2CN2CCC(n3nnc4ccccc43)CC2)cc1 | inconclusive: 78.7% |
| COc1ccc(CN2CCCC(C(=O)c3ccc(Cl)cc3)C2)c(O)c1 (stereo unspecified) | inactive: -1.46% |
| CCCCCCn1c(O)c(/C=N/N2CCCCCC2)c(=O)[nH]c1=O | active: 151% |
| Nc1cc2nc3ccccc3nc2cc1N | inconclusive: 211% |
| CN(C)C(=O)O/N=C(\N)COc1ccc(C(C)(C)C)cc1 | inconclusive: 67.8% |
| CCCCCCOc1ccc(CN2CCN(CC)CC2)cc1 | inconclusive: 62.6% |
| CC(C)(C)c1ccc(C(=O)C2CCCN(Cc3ccon3)C2)cc1 (stereo unspecified) | inactive: -12.3% |
| CN1CCN(C(=O)COc2ccc(C(C)(C)C)cc2Br)CC1 | inconclusive: 170% |
| COc1ccc(/C=C2\C(=O)NC(=S)N(C)C2=O)cc1C | inconclusive: 62.8% |
| CC1C(c2cccs2)=[N+]([O-])C(C)(C(=O)c2ccc(Cl)cc2)N1O (stereo unspecified) | inconclusive: 95.2% |
| CCCCn1c(O)c(C(CC)=Nc2ccc(OC)cc2OC)c(=O)[nH]c1=O | inconclusive: 464% |
| CN1/C(=C\C=C2C(=O)NC(=S)NC2=O)C(C)(C)c2ccccc21 | inconclusive: 76.2% |
| O=S(=O)(c1ccc(Cl)cc1)N1CN2CCN(C2)C1 | inconclusive: 318% |
| O=C(c1cc2cc(Br)ccc2[nH]1)N1CCC2(CC1)OCCO2 | active: 424% |
| COC(=O)C1=C(c2ccc3ccccc3c2)C[C@@H]2CC[C@H]1N2C | inactive: 2.78% |
| O=C1NC(=O)C2(C(=O)N1)C(c1ccc(F)cc1)NC(=S)NC2c1ccc(F)cc1 (stereo unspecified) | inconclusive: 147% |
| CC(=O)O[C@H]1CC[C@@]2(C)C(=CC(=O)C3C2CC[C@@]2(C)C3C[C@H](OC(C)=O)[C@@H]2OC(C)=O)C1 (stereo partly specified) | active: 65.7% |
| Cc1ccc(NC2=NCCCS2)c(C)c1C | inconclusive: 121% |
| CCC(=NCc1ccc(F)cc1)c1c(O)n(C)c(=O)n(C)c1=O | inconclusive: 99.8% |
